Results as given in PubChem BioAssay AID1347423 (Functional Genomics Laboratory (NCATS/FGL), 2020).
About 210 (0.4%) of roughly 52,000 sequences were called active.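 How the source made its calls: active means gene whose silencing raises cell survival under the drug, median off-target-corrected z-score across its silencing RNAs 2 or more; inactive means the rest.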 The list shows a part of the results.

experiment: Resistance to Poly (ADP-Ribose) Polymerase inhibitor: Gene Identification via Genome-wide siRNA Screen; settings: mouse BRCA2 R2336H ES cells, olaparib, CellTiter-Glo viability; active compounds read high
How it was run: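 Mouse BRCA2 R2336H ES cells were reverse-transfected with siRNA (20 nM final), treated at 48 h with 500 nM olaparib, and read by CellTiter-Glo after 72 h. Scores: MAD-based z per siRNA, median per gene, seed off-target correction.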

| Sequence | z-score |
| --- | --- |
| GGGAGAGGCACAAAGCAUATT against Ubxd3 | inactive: 1.27 |
| CGAAGACACCGAUAUUUCUTT against E130304D01 | inactive: -0.0405 |
| CGGUGACGACGGAAUUCUATT against Cpne4 | inactive: 0.347 |
| CGAAGUCAAGCAGAAAAGATT against C1qtnf1 | inactive: -0.687 |
| GCCAGAGUUUAUUAACUGCTT against Stxbp6 | inactive: -0.26 |
| CCUAAAUUUGACUGUGCCUTT against Nudt10 | inactive: 0.593 |
| CCUCUCUAGGCUAUAACUATT against 4933428G20Rik | inactive: -1.15 |
| UACUGAUUCUGCUGGACUCTT against Olfr1474 | inactive: -1.5 |
| GGUACUACUUCCUUUGGAATT against Slc38a2 | inactive: 1.35 |
| GGUUAUUUUGUUGGAAGUCTT against BC035295 | inactive: -1.61 |
| GGACUCUUUAGCACAAACUTT against Tlr11 | inactive: 0.636 |
| GGCAAGGAUAUAAAUUCACTT against Mak | inactive: 0.148 |
| GCAGGAGGUUUAUACAGCCTT against Spata5 | inactive: -0.071 |
| GCACCCACGAUUAUUGGAATT against Pyp | inactive: 0.219 |
| GGUUGAUUUCCUGUUUCUGTT against Casp7 | inactive: 0.0188 |
| GCUAUACGAAGACUUCAGCTT against 2810435D12Rik | inactive: 1.02 |
| CCCUAUUUGUCAGCGGUCUTT against Rbpms | inactive: 1.02 |
| CCUGAUGCACUACUCGUCUTT against Otx3 | inactive: 1.45 |
| GGAGCAGAUUAAAUCCCUGTT against Krt2-8 | inactive: 1.25 |
| GCAAUGUCUAUUCAAGGUUTT against 1100001I19Rik | inactive: 0.344 |
| CCAGCUCUGUACUAAUCCUTT against Nol3 | inactive: 0.147 |
| GGAUUUUUCAGAUUCUAGATT against Hs6st2 | inactive: 0.598 |
| GGACUUUUAUUAUUUCCCGTT against D15Bwg0669e | inactive: -0.393 |

| Sequence | z-score |
| --- | --- |
| GGAGUUUUACUUUUCUCUCTT against Cldn23 | inactive: 0.865 |
| CCAUCUACAAACUUUGGCCTT against Sacs | inactive: -0.228 |
| GGUCAUGUAUUUUCUUCUATT against Olfr576 | inactive: 0.203 |
| CCAGCCAACGAGAACUUUUTT against BC059842 | inactive: -1.26 |
| GGCAUUUAAUCACUGGCUGTT against Ggps1 | inactive: -2.32 |
| GCAAAACCGGCGUAUGAGATT against 1110031B06Rik | inactive: 1.1 |
| CGACCACACAGGGAUAUACTT against BC010462 | inactive: 0.742 |
| GGGUACAAAGGCUGUAGUUTT against Sec61a1 | inactive: -2.05 |
| GGCAGAAGAGUGGUACUUUTT against Fyn | inactive: -1.1 |
| GCCUUGACGUGCUUCAGAUTT against Golga7 | inactive: -0.03 |
| GAACGUGAAGGCCAAGAUCTT against Ubb | inactive: -0.324 |
| GACAACAACUCUUGGCAGATT against Speer4d | inactive: 2.46 |
| UGGUGAAUACCAGUCUAAUTT against Tnfrsf23 | inactive: -0.597 |
| GGAAAUUCAGCAUGGAGCCTT against Vgll4 | inactive: -0.472 |
| GCUUGACUUUGAAAGUCCATT against LOC432615 | inactive: -0.487 |
| GCUCUUUGACCUUGGCAAATT against 1810034K20Rik | inactive: -0.315 |
| GGUGCAAGGUUCUUGUGUUTT against 6030422M02Rik | inactive: -0.453 |
| CGUGUGAAGCAGUUAUGAUTT against Pbx3 | inactive: 3.25 |
| GGCUCAUUCACUAAUCCGATT against Sip1 | inactive: 0.0801 |
| GCACAUCAUUUUGAGUAUUTT against Spg21 | inactive: 0.612 |
| GGAAUGGACCUCAAAAUUGTT against 4930579A11Rik | inactive: 0.6 |
| GGAGAGUGCUUCACAGACATT against Crlf3 | inactive: 0.228 |
| GGCCUCUACUUCUUUGAGUTT against Cklfsf4 | inactive: 1.02 |

| Sequence | z-score |
| --- | --- |
| GCCAGUCCUUCAAGUGUAUTT against Jak2 | inactive: 1.2 |
| CCCAUGUACCACUUUGUCATT against Olfr430 | inactive: 1.75 |
| GGUAAAAACCCAGAGAUGATT against Rem2 | inactive: 0.794 |
| GGGUAUUGACUACACCAGCTT against Tnfrsf10b | inactive: 0.362 |
| GGUUUGAGUGGAAAAUUCATT against Csnd | inactive: 0.147 |
| GGACAAGGAGUAUUAUGUGTT against Nrxn3 | inactive: 2.31 |
| CCACAAGCAGUGCUCUUUCTT against Cyp3a13 | inactive: -0.683 |
| GGGUAGGUCCAAAGCCUUCTT against Olfr902 | inactive: 0.482 |
| GGACAGAGCCUAGAAAACUTT against Mpdu1 | inactive: -1.1 |
| GGCAAUUAAAGAAGCCCUCTT against Cyp2c40 | inactive: -0.52 |
| GGAAAACCAAGACCACAAATT against Nsbp1 | inactive: 0.202 |
| GCGGAUGCUCAGUGAUGGGTT against Tcp10a | inactive: 1.17 |
| CGUACAUGUACCAAAAUAUTT against Angpt1 | inactive: 0.668 |
| GCAGUCUCCAAUUGAGAUUTT against Car13 | inactive: 1.55 |
| CGAAGGUAGCCAGUCACAATT against Ppib | inactive: 0.414 |
| GGUGAAUGGCAUGACCAUATT against Asb9 | inactive: 1.53 |
| GGGAUUUCAAGGAAAUAAGTT against Gm466 | inactive: 0.898 |
| CGAGAAAACACGGACCUCATT against Slc16a6 | inactive: 0.644 |
| GGCUGGUAAUUCACUUAAUTT against Kcnk2 | inactive: -0.0444 |
| GCUAAGGACUCAGCAAAACTT against D5Ertd33e | inactive: 1.57 |
| CGCGUUGACAUACAUAAAATT against D5Ertd33e | inactive: -0.622 |

Quoted at random: 5 entries already listed, in no set order.

| Sequence | z-score |
| --- | --- |
| GGACAAGGAGUAUUAUGUGTT against Nrxn3 | inactive: 2.31 |
| GGGUAGGUCCAAAGCCUUCTT against Olfr902 | inactive: 0.482 |
| CGAAGGUAGCCAGUCACAATT against Ppib | inactive: 0.414 |
| GGGUAUUGACUACACCAGCTT against Tnfrsf10b | inactive: 0.362 |
| GGAAAACCAAGACCACAAATT against Nsbp1 | inactive: 0.202 |
